In the supplement of paper PMC12819154, “High-throughput peptide-centric local stability assay extends protein–ligand identification to membrane proteins, tissues and bacteria” (Nature Structural & Molecular Biology, 2025):
Some of the results follow. Small differences around the control level are noise.

The chains behind the UniProt entries cited, without tags or fusion partners. Where a name states a change or a piece, a line headed by the entry shows the natural chain unless it says otherwise.
UniProt Q96RS0: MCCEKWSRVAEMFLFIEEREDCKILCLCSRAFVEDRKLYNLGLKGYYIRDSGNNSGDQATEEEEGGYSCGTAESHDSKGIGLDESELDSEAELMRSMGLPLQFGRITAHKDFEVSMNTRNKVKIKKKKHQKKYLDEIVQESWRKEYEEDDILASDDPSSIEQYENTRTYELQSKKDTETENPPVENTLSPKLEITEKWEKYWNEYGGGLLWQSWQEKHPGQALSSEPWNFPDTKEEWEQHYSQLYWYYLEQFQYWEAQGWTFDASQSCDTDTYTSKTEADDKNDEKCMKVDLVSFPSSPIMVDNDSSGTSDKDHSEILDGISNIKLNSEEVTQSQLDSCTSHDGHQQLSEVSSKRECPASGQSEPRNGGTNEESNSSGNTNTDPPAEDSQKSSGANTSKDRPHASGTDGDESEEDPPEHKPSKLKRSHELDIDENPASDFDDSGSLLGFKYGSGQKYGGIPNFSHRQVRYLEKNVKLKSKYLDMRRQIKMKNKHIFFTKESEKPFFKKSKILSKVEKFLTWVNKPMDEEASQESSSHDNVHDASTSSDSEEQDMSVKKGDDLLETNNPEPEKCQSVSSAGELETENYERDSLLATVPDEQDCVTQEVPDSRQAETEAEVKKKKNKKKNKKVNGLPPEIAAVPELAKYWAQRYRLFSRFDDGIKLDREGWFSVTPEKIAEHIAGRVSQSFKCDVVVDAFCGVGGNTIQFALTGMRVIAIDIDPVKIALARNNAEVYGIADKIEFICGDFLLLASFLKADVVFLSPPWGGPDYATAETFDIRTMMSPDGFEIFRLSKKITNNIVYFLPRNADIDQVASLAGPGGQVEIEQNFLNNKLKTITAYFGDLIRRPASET
UniProt Q96GQ7: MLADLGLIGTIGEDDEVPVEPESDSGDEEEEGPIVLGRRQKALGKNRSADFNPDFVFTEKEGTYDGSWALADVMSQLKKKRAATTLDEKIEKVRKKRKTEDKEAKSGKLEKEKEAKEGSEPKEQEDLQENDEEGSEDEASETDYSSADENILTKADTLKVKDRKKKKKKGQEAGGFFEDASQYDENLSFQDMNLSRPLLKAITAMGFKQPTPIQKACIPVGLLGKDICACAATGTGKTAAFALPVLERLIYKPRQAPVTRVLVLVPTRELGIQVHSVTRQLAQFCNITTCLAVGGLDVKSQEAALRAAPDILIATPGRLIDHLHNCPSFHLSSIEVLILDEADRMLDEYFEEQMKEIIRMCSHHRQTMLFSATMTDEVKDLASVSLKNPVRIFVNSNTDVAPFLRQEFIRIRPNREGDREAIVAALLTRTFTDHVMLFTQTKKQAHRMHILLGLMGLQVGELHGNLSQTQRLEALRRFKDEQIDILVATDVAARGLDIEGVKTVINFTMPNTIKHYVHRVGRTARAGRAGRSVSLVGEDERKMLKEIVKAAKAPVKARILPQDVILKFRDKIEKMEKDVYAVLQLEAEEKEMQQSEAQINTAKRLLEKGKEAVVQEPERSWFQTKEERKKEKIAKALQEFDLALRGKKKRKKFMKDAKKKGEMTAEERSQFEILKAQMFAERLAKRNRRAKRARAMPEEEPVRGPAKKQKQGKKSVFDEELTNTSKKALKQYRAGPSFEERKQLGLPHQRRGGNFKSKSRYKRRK
UniProt Q96MT0: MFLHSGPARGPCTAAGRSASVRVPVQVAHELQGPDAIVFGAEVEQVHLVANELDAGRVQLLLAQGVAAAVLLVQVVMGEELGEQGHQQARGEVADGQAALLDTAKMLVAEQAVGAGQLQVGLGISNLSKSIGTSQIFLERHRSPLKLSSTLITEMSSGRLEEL
UniProt Q96RU3: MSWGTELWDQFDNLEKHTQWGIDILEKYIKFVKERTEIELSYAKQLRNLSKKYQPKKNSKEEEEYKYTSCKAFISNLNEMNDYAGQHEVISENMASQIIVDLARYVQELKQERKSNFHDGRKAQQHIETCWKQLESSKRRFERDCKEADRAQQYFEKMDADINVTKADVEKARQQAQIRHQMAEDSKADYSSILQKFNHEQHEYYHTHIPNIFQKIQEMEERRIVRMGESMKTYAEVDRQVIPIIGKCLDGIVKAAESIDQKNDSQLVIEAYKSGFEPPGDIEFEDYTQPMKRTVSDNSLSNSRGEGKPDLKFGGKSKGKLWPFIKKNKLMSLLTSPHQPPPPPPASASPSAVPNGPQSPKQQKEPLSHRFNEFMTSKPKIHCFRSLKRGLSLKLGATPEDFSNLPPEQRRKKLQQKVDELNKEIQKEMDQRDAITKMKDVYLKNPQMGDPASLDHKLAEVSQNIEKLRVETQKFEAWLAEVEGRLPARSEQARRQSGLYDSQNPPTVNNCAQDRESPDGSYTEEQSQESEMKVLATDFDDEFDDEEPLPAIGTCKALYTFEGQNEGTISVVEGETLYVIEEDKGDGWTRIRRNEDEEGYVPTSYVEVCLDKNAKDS
UniProt Q96LW1: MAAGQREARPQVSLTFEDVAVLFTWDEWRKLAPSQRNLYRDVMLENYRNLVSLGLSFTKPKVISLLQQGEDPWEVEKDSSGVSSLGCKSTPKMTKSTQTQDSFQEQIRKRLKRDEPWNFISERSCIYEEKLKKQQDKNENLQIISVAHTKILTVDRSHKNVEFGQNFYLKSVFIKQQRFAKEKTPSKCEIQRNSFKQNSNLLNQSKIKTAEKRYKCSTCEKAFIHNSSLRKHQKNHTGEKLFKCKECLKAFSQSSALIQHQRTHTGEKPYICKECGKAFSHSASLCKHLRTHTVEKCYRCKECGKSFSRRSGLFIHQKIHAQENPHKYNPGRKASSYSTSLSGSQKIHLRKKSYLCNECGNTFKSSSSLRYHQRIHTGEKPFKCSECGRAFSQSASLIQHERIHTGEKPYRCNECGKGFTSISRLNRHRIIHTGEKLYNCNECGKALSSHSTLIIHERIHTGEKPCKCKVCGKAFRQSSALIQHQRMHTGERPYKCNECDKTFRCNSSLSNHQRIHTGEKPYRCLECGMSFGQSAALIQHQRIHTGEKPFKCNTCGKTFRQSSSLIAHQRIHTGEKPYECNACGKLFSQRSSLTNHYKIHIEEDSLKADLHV
UniProt Q96NT0: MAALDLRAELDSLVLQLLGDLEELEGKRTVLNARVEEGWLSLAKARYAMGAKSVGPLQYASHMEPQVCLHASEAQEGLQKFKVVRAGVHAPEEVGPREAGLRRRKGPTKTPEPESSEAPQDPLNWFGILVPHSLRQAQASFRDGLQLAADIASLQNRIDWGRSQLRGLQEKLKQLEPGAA
UniProt Q96GX2: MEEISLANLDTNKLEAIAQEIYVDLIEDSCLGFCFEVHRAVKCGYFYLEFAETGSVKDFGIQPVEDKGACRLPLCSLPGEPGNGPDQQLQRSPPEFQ
UniProt Q99447: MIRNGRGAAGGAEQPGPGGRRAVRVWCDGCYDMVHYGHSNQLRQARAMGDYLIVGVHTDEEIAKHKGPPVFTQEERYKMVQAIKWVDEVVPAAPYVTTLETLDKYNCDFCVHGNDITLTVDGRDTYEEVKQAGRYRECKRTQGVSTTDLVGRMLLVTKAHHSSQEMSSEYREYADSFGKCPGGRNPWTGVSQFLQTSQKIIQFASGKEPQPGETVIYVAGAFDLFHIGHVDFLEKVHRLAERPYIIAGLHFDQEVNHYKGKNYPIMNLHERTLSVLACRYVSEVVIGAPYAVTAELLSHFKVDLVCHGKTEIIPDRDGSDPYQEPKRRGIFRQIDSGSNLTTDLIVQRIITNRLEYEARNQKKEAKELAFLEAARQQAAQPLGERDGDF
UniProt Q96I24: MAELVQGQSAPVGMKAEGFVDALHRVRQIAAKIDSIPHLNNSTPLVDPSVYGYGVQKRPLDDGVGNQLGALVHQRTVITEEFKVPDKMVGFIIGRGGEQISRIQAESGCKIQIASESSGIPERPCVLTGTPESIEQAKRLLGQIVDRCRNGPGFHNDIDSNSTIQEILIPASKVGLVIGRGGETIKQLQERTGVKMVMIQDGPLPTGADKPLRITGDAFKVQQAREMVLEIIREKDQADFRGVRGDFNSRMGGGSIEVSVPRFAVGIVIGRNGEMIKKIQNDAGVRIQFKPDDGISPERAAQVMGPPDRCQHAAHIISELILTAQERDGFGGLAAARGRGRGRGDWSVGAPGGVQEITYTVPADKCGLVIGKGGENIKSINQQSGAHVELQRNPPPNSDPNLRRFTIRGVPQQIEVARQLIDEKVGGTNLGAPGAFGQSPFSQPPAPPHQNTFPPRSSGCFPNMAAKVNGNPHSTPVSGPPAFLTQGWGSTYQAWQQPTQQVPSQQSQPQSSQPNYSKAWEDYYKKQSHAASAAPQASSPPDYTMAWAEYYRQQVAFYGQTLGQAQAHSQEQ

compound: CN[C@@H]1C[C@H]2O[C@@](C)([C@@H]1OC)n1c3ccccc3c3c4c(c5c6ccccc6n2c5c31)C(=O)NC4 [staurosporine]; assay: log2 fold change of tryptic peptide abundance, ligand vs vehicle (limited proteolysis) (log2 ratio); higher = more trypsin-susceptible (destabilized); settings: ligand concentration: 20 uM; sample: K562 cleared lysate; digestion: 4 min, 22 C (HT-PELSA RT4min, Orbitrap Astral)

Target	log2 fold change
TGS1 (peptide sequence: DFEVSMNTR, peptide start residue: 111) (UniProt Q96RS0)	-0.319
SPATA33 (peptide sequence: HPPPAASLEEKPDVK, peptide start residue: 61) (UniProt Q96N06)	-0.517
DDX27 (peptide sequence: KSVFDEELTNTSKK, peptide start residue: 745) (UniProt Q96GQ7)	-0.257
UniProt Q96MT0 (peptide sequence: SIGTSQIFLER, peptide start residue: 130)	0.266
FNBP1 (peptide sequence: NDSQLVIEAYK, peptide start residue: 263) (UniProt Q96RU3)	-0.404
UniProt Q96LW1 (peptide sequence: NLVSLGLSFTKPK, peptide start residue: 49)	-0.144
CCDC115 (peptide sequence: DGLQLAADIASLQNR, peptide start residue: 143) (UniProt Q96NT0)	-0.234
ATXN7L3B (peptide sequence: DFGIQPVEDK, peptide start residue: 58) (UniProt Q96GX2)	0.0241
PCYT2 (peptide sequence: AMGDYLIVGVHTDEEIAK, peptide start residue: 47) (UniProt Q99447)	-0.238
FUBP3 (peptide sequence: SSGCFPNMAAK, peptide start residue: 457) (UniProt Q96I24)	-0.153

Look-ups from the list.
Value of SPATA33 (peptide sequence: HPPPAASLEEKPDVK, peptide start residue: 61) (UniProt Q96N06) under log2 fold change: -0.517
Value of CCDC115 (peptide sequence: DGLQLAADIASLQNR, peptide start residue: 143) (UniProt Q96NT0) under log2 fold change: -0.234
